Library screening results

The filed quantity is “Percent Effect” (%).
How 0% and 100% were set is not recorded. Most values in the screen are low, and negative values occur.
Compounds were drawn at random from those tested, without regard to their results.
Two or more numbers in one place are separate tests of the same structure; such repeats can differ widely.

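Viability assay of Plasmodium falciparum sporozoites; the read-out is not stated. The concentration is filed as 10 mM, unlikely as a test dose, so the dose is not known. Higher reads as lower viability (inferred: compounds with an IC50 in retests scored well above the rest). Strong results were mostly tested again. Of about 34,000 compounds tested this way, about 280 (0.84%) reached 50% or more in at least one test.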

{"compound": "CNc1cncc(C2CCCN2C(=O)CCn2ccnc2C(C)C)n1", "stereo": "stereo unspecified", "effect": 2.784}
{"compound": "CC(=O)N1CCC(NC(=O)c2ccccc2-n2cnnn2)CC1", "effect": -0.5917}
{"compound": "O=C(CCc1ccncc1)N1CCCC(n2cccn2)C1", "stereo": "stereo unspecified", "effect": -1.754}
{"compound": "Cn1ccnc1CN1CCCN(Cc2noc(C3CC3)n2)CC1", "effect": 13.57}
{"compound": "O=C(NCCNc1ccccn1)N1CCSCC1", "effect": -31.36}
{"compound": "CC(C)(C)C1SCC(=O)Nc2c1c(O)nn2C1CCCCC1", "stereo": "stereo unspecified", "effect": -6.994}
{"compound": "Cc1noc(C)c1-c1nc(C2CCCN(C(=O)CCN)C2)ccc1CO", "stereo": "stereo unspecified", "effect": 12.94}
{"compound": "CC(C)c1nccn1C1CCCN(C(=O)c2ccnc(N(C)C)c2)C1", "stereo": "stereo unspecified", "effect": 4.855}
{"compound": "Cc1nc(CN(C)C2CCN(Cc3sc(C)nc3C)C2)no1", "stereo": "stereo unspecified", "effect": -0.4075}
{"compound": "CCN1CCCC1(C)c1nc(C)cc(N)n1", "stereo": "stereo unspecified", "effect": -3.453}
{"compound": "Cc1cc(-c2cnc(NC3CC3)nc2-c2ccc(C)o2)on1", "effect": -7.266}
{"compound": "CCn1cc(CN(C)S(=O)(=O)c2ccc(Cl)cc2)cn1", "effect": 0.4386}
{"compound": "O=C(CN1CCCC1Cn1cncn1)NCCC1=CCCCC1", "stereo": "stereo unspecified", "effect": 3.976}
{"compound": "[H][C@@]12COC[C@]1([H])[C@@H](OC)CN2C(=O)c1ccnnc1", "effect": 1.703}
{"compound": "CN(C(=O)CNC(=O)CC(C)(C)C)C1CCN(c2ccccn2)CC1", "effect": 8.12}
{"compound": "COc1ccc(C)cc1CN1CCC(c2cc3ncccc3cn2)CC1.Cl", "effect": "37.58 and 32.16 and 35.78"}
{"compound": "COc1ccc2nnc(CCCC(=O)NCc3cccn3C)n2n1", "effect": 4.825}
{"compound": "Cc1cc(CN2CCN(C(=O)NCCc3csc(C)n3)CC2)on1", "effect": -10.14}
{"compound": "O=C1CCCN1Cc1nnc2n1CCCN(C(=O)c1ccc[nH]1)C2", "effect": 11.43}
{"compound": "O=S(=O)(c1cccs1)N1Cc2nc(COCC3CC3)oc2C1", "effect": -7.764}
{"compound": "O=C(O)c1nnn(-c2ccc(OC(F)(F)F)cc2)c1-c1ccncc1", "effect": -4.848}
{"compound": "CCN(CC1CN(Cc2cccnc2)CCO1)c1cccnn1", "stereo": "stereo unspecified", "effect": -13.73}
{"compound": "O=C(O)C(F)(F)F.[H][C@]12CCCC(OC)[C@@]1([H])CN(Cc1csc(C)n1)C2", "stereo": "stereo partly specified", "effect": 1.789}
{"compound": "O=C(NC[C@]1(O)CN(Cc2ccccc2F)C[C@H]1O)c1cscn1", "effect": -4.657}
{"compound": "CCOCCn1nc(C)cc1C(=O)N1CC(C)(C)[C@@](C)(O)C1", "effect": 13.95}
{"compound": "NC(=O)CN1CCC(c2noc3cc(F)ccc23)CC1", "effect": -1.668}
{"compound": "Cc1ncsc1CN1C[C@@H](O)[C@](O)(CNC(=O)c2ccccn2)C1", "effect": 11.26}
{"compound": "COc1ccc(NC(=O)NCC(O)c2ccc(F)cc2F)c(OC)c1", "stereo": "stereo unspecified", "effect": 7.876}
{"compound": "CN1CCc2nc(C3CCCN(C(=O)CC4CCCCC4)C3)ncc2C1", "stereo": "stereo unspecified", "effect": 6.862}
{"compound": "Cc1ccccc1OCC(O)CN1CCC(Cn2cccn2)CC1", "stereo": "stereo unspecified", "effect": -1.958}
{"compound": "Cc1nn(C)c2nc(O)cc(C(F)(F)C(F)(F)F)c12", "effect": 4.57}
{"compound": "Cn1ccc(C(=O)N2CCN(c3ccccn3)CC2)cc1=O", "effect": -0.6655}
{"compound": "O=C(O)C(F)(F)F.[H][C@@]12OCCN(CC3CCOCC3)[C@@]1([H])CC[C@H]2OC", "effect": -1.127}
{"compound": "CCN1CCN(C(=O)c2cc(C(=O)OC)nn2-c2ccccc2)CC1", "effect": 15.17}
{"compound": "CN(C)CCNC(=O)c1sc2ccccc2c1C1CCC(CN)CC1.Cl", "stereo": "stereo unspecified", "effect": 13.87}
{"compound": "COc1ccc(CN2CCC(c3cc(O)nc(C)n3)C2)c(F)c1", "stereo": "stereo unspecified", "effect": 1.506}
{"compound": "O=C(O)C(F)(F)F.O=C(O)C(F)(F)F.[H][C@]12CCN(C(=O)Cc3ccc(C)cc3)C[C@@]1([H])OCCN(CCN(C)C)C2", "effect": 4.343}
{"compound": "O=C(Cc1cccc(O)c1)N1CCCC(O)(CN2CCCC2)CC1", "stereo": "stereo unspecified", "effect": 3.934}
{"compound": "O=C(NC1CCCC1)c1n[nH]c2c1CNCC2", "effect": 4.619}
{"compound": "Cc1nn(CC(=O)N2CCN(c3cnccn3)CC2)c(C)c1Cl", "effect": 5.644}
{"compound": "CN(C)c1cc(C2CCCN2C(=O)c2noc3c2CCCC3)ccn1", "stereo": "stereo unspecified", "effect": 5.373}
{"compound": "[H][C@@]12CCCO[C@]1([H])[C@H](OCC1CCOCC1)CN2C(=O)c1occc1C", "effect": -23.89}
{"compound": "O=C(c1cccc(F)c1)N1CCc2ncc(Cn3cccn3)n2CC1", "effect": 4.553}
{"compound": "COCCN1Cc2ccccc2C2(CCN(S(C)(=O)=O)CC2)C1", "effect": 24.96}

For reference, 2 entries once more:

Compound	effect
O=C(CCc1ccncc1)N1CCCC(n2cccn2)C1 (stereo unspecified)	-1.754
O=C(O)c1nnn(-c2ccc(OC(F)(F)F)cc2)c1-c1ccncc1	-4.848

The values are deposited in ChEMBL (CHEMBL3988442, “University of Dundee, Small-Polar-MMV Screening Library” (2021)).